Consider one substance from PMC3760629.

By UniProt entry, the sequences of proteins in these tests, tags left out.
UniProt Q9UKV8: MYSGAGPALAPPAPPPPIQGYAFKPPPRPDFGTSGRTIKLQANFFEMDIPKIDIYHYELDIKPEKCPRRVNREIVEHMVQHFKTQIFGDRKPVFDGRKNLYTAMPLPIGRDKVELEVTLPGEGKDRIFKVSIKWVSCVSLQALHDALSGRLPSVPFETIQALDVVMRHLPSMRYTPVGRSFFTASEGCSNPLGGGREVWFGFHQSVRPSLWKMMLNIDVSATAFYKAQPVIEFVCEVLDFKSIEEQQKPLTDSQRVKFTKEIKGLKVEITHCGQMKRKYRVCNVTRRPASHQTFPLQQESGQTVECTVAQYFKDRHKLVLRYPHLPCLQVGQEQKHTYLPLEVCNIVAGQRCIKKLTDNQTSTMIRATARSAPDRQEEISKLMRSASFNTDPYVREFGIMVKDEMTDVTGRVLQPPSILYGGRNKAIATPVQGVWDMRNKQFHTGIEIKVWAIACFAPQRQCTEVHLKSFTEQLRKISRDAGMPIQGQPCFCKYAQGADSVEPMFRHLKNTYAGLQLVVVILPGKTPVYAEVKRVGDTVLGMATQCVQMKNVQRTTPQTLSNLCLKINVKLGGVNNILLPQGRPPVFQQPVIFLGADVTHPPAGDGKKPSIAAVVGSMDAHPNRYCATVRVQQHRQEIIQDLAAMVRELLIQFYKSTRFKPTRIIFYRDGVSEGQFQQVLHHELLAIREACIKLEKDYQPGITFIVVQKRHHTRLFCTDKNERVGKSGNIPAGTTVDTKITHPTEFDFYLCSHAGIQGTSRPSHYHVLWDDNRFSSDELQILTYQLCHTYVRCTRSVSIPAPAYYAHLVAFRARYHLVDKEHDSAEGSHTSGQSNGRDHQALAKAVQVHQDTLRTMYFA
UniProt Q8NDV7: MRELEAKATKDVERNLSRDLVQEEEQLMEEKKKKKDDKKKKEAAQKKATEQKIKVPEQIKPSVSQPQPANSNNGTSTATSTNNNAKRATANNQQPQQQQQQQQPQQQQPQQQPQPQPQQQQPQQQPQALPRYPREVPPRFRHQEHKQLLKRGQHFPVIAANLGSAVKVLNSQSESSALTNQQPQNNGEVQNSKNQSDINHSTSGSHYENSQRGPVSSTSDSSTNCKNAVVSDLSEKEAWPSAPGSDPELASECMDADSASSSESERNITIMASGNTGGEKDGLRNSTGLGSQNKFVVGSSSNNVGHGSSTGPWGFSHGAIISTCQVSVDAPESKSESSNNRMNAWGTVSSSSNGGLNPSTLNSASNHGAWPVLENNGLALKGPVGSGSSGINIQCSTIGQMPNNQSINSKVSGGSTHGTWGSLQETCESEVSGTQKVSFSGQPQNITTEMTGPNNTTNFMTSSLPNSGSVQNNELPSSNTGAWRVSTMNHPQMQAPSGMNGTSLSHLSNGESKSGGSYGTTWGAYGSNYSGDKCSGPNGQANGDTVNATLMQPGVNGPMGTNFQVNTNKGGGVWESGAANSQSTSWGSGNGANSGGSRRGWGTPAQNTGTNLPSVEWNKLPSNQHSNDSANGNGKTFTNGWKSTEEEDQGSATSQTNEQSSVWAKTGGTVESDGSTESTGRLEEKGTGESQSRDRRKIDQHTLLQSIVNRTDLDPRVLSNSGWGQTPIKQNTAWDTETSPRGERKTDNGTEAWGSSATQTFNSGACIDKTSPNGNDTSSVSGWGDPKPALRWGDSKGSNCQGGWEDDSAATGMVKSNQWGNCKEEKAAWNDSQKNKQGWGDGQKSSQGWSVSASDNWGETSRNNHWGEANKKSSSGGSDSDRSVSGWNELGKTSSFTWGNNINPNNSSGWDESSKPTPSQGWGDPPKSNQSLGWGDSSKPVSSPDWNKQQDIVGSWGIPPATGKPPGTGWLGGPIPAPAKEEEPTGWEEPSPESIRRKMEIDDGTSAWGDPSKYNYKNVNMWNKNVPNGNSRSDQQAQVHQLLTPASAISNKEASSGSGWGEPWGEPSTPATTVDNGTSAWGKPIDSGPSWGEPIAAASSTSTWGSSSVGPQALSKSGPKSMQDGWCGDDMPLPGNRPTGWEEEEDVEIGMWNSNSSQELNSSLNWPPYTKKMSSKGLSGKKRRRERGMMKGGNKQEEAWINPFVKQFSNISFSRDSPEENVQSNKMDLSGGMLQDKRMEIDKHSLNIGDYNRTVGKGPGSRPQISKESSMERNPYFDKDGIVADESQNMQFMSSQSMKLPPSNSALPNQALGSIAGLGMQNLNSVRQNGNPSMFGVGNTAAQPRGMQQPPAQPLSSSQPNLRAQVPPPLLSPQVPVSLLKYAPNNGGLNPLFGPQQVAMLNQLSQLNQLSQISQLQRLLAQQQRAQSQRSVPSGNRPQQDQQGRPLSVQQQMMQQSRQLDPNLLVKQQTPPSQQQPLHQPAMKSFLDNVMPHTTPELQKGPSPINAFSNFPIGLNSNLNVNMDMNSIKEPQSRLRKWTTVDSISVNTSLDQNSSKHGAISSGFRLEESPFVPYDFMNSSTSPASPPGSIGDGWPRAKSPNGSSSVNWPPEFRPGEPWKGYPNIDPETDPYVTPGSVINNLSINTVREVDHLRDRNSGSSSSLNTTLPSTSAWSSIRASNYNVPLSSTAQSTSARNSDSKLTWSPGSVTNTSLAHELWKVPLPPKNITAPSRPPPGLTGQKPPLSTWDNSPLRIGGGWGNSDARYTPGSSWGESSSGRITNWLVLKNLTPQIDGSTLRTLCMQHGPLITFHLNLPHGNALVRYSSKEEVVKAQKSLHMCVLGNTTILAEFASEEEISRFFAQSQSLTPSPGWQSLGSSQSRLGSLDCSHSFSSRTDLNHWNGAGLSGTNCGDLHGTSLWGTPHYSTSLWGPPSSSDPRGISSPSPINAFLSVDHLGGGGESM

Results are given in words; binding and its absence hold for the method and conditions named. In cells and extracts the contact can be indirect. Some binding calls cover weakened binding; strength is not graded here.

For the test, the target named is Argonaute2 (human (endogenous in human plasma)) (UniProt Q9UKV8). Briefly: co-IP; antibodies directed toward Ago2 and GW182 used to immunoprecipitate the proteins from human plasma; western analysis.

For the substance GW182 (from UniProt Q8NDV7 1-1962), the binding result is listed as “binds”.
